Experimental data reported in PMC10911929.
These are yes or no findings as the source states them, for the method shown. In cells and extracts the contact can be indirect. Here binding means that the protein was enriched with, or labelled near, the bait; the list need not be complete.

Sequences of proteins named here, by UniProt entry; tags and fusion partners are left off.
UniProt P78344: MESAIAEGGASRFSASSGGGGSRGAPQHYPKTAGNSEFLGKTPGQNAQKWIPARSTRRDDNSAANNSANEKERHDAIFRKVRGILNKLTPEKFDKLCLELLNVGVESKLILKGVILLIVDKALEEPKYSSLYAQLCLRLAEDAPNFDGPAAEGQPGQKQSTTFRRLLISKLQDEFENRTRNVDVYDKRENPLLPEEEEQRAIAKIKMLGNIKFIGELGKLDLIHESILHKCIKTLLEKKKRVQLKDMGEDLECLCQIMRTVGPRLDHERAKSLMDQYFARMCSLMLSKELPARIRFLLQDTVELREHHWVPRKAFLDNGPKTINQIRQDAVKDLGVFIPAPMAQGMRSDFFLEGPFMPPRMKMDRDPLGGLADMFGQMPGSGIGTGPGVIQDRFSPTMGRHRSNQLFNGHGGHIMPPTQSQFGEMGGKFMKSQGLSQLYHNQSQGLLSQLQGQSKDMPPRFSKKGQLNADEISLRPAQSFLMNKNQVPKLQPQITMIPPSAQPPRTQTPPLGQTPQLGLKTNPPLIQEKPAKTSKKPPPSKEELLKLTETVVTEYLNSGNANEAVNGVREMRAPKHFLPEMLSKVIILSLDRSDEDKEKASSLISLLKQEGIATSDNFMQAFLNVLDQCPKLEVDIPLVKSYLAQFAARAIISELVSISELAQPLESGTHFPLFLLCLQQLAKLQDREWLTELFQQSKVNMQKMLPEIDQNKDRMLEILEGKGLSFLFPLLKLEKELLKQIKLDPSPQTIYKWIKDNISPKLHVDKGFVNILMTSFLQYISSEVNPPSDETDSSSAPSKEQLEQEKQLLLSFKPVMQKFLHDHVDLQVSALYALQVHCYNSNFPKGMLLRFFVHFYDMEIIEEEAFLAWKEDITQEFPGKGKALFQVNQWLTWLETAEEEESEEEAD

T1: DEAD-Box Helicase 1 (DDX1) (human (endogenous in KELLY and IMR5/75)) (UniProt Q92499)
T1 sequence: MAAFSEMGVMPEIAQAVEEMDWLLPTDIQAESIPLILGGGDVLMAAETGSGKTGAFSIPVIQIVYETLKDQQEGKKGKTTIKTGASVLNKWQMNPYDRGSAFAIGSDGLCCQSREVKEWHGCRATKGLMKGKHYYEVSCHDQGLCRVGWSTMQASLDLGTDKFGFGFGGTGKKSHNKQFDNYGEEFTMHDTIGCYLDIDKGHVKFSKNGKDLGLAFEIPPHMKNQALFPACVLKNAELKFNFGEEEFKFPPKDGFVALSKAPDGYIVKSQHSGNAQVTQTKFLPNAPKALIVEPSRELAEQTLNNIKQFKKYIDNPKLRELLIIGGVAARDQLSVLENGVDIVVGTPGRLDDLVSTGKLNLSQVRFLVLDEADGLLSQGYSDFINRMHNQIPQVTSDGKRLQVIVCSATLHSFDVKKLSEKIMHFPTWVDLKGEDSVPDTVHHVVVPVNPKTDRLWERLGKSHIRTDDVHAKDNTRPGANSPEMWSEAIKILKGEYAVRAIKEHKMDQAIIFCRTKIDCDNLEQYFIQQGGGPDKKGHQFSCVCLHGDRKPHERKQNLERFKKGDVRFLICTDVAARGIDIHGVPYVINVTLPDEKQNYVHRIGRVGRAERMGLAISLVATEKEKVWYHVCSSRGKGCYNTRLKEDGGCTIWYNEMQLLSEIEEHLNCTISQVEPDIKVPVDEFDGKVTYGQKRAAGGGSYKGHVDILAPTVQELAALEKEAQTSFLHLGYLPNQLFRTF


Molecular target: T1, DEAD-Box Helicase 1 (DDX1) (human (endogenous in KELLY and IMR5/75))
Experiment: affinity purification with mass spectrometry; immunoprecipitation of endogenous DDX1 (antibody, Protein A-Sepharose, overnight 4°C) from whole-cell extracts of KELLY (MYCN amplified) and IMR5/75 (DDX1-MYCN coamplified) cells; IgG control; LC-MS/MS, label-free quantitation

binding | Molecule
binds | eIF4G2 (from UniProt P78344 1-907)
binds | DLD (protein, UniProt P09622 36-509) ADQPIDADVTVIGSGPGGYVAAIKAAQLGFKTVCIEKNETLGGTCLNVGCIPSKALLNNSHYYHMAHGKDFASRGIEMSEVRLNLDKMMEQKSTAVKALTGGIAHLFKQNKVVHVNGYGKITGKNQVTATKADGGTQVIDTKNILIATGSEVTPFPGITIDEDTIVSSTGALSLKKVPEKMVVIGAGVIGVELGSVWQRLGADVTAVEFLGHVGGVGIDMEISKNFQRILQKQGFKFKLNTKVTGATKKSDGKIDVSIEAASGGKAEVITCDVLLVCIGRRPFTKNLGLEELGIELDPRGRIPVNTRFQTKIPNIYAIGDVVAGPMLAHKAEDEGIICVEGMAGGAVHIDYNCVPSVIYTHPEVAWVGKSEEQLKEEGIEYKVGKFPFAANSRAKTNADTDGMVKILGQKSTDRVLGAHILGPGAGEMVNEAALALEYGASCEDIARVCHAHPTLSEAFREANLAASFGKSINF
